In PubChem BioAssay AID504834 (National Center for Advancing Translational Sciences (NCATS), 2011):
Hit rate of the full screen: of about 320,000 compounds, about 22,000 (6.9%) were called active. The shares of active, inactive and inconclusive entries below differ from those in the screen. The call rests on the fitted dose curve; in most records, active means well fitted inhibition curve with a large enough effect; inconclusive means small, poorly fitted or top-dose-only effect, or another doubt; inactive means no such curve, though single readings can be large or run the other way. Potencies beside an inconclusive call are fits to weak or partial responses and may not hold up.

Experiment: Primary qHTS for delayed death inhibitors of the malarial parasite plastid, 96 hour incubation
Settings: P. falciparum luciferase reporter growth; series mostly up to 28.7 µM; activity change, negative = inhibition: at the top concentration
Procedure, shortened: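 Two parasite generations (96 h, 37 C, 5% CO2) of compound exposure in infected erythrocytes (0.05% parasitemia, 2% hematocrit). Luciferase-reporter P. falciparum; decreased luminescence indicates inhibited growth, aimed at apicoplast-acting delayed death.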
On the % scale 0 is the no-effect control and ±100 the full control effect; potency means the concentration at half of the fitted maximal effect.

Row | Compound | activity change, negative = inhibition | Potency
1 | COCCCNC(=O)Cc1c(C)c2c(cc(C)c3c(C(C)(C)C)coc32)oc1=O | inactive: 31.9% | 
2 | COc1ccc(C(=O)/C=C/Nc2ccc(S(=O)(=O)Nc3ncccn3)cc2)cc1 | inactive: 50.2% | 
3 | COc1ccccc1CNC(=O)C1CCN(S(=O)(=O)N2CC(C)CC(C)C2)CC1 (stereo not given) |  | inconclusive: 4.65 µM [inhibitor, partial curve, poor fit]
4 | Cc1cccc(OCC(=O)Nc2cccc(O)c2)c1 |  | inconclusive: 0.233 µM [inhibitor, full curve, poor fit]
5 | O=C1C2C(c3ccccc3)CC=CC2[C@H](c2ccoc2)N1Cc1ccccc1 (stereo not given in full) |  | inconclusive: 18.5 µM [inhibitor, single point]
6 | O=C(CC1CCCCC1)N=C1SC2CS(=O)(=O)CC2N1c1ccccc1 (stereo not given) |  | inconclusive: 18.5 µM [inhibitor, single point]
7 | CCc1nnc(NC(=O)c2ccc(S(=O)(=O)N3CCc4ccccc4C3)cc2)s1 | inactive: 27.4% | 
8 | CCOc1ccc(S(=O)(=O)N2CCCC(C(=O)NCc3ccccn3)C2)cc1C (stereo not given) | inactive: 20.3% | 
9 | Cc1c(C(=O)O)c(O)cc2c1C(=O)c1c(O)c([C@H]3O[C@H](CO)[C@@H](O)[C@H](O)[C@H]3O)c(O)c(O)c1C2=O |  | inconclusive: 6.01 µM [inhibitor, partial curve, poor fit]
10 | Nc1nc(-c2ccccc2)nn1S(=O)(=O)c1ccccc1 | inactive: -13.6% | 
11 | COc1ccc2nc(NC(=O)C3=NN(c4ccccc4)C(=O)CC3)sc2c1 |  | inconclusive: 18.5 µM [inhibitor, single point]
12 | CCOc1cc(NC(=S)NCc2ccccc2)c(OCC)cc1NC(=O)C(C)C |  | inconclusive: 13.1 µM [inhibitor, partial curve, poor fit]
13 | O=C(Nc1cccc(NC(=O)c2cccs2)c1)c1ccc([N+](=O)[O-])o1 |  | active: 3.29 µM
14 | Cc1cccc(NC(=O)c2cc(-c3cccnc3)nc3c(C)cccc23)n1 |  | active: 4.65 µM
15 | Cc1ccc(C(=O)Nc2cccc(C(=O)O)c2)cc1S(=O)(=O)N1CCCCC1 | inactive: 28.3% | 
16 | O=C(Nc1ccc2c(c1)OCO2)c1ccc([N+](=O)[O-])cc1[N+](=O)[O-] | inactive: 25.2% | 
17 | COc1cccc(OC)c1C(=O)Nc1cc2c(cc1N1CCOCC1)n(C)c(=O)n2C |  | inconclusive: 18.5 µM [inhibitor, single point]
18 | CCc1ccccc1NC(=S)N(CCCN1CCOCC1)Cc1ccccn1 | inactive: -1.28% | 
19 | COc1ccc(NC(=S)N2CCN(S(=O)(=O)c3ccc(F)cc3)CC2)cc1 |  | inconclusive: 18.5 µM [inhibitor, single point]
20 | CCOc1ccc(NC(=O)CN2CCN(CC(=O)Nc3ccc4c(c3)OCCO4)CC2)cc1 | inactive: 5.22% | 
21 | COC(=O)C1=C(c2ccc(F)cc2OCc2ccccc2)C[C@@H]2CC[C@H]1N2C(=O)NCCOc1ccc(OC)cc1 |  | active: 3.29 µM
22 | CCOc1ccc2oc(C(=O)N(CC)CC(=O)Nc3ccc(NC(C)=O)cc3)c(C)c2c1 |  | inconclusive: 11.7 µM [inhibitor, single point]
23 | O=c1ccc2cc(S(=O)(=O)N3CCN(c4cc(Cl)ccc4Cl)CC3)ccc2o1 |  | inconclusive: 10.4 µM [inhibitor, partial curve, poor fit]
24 | COc1ccc(N=Nc2c(-c3ccc(OC)cc3)[nH]oc2=O)cc1 | inactive: 12.5% | 

Row | Compound | activity change, negative = inhibition | Potency
25 | O=C1CSC(=Nc2ccc(Cl)cc2)N1Cc1cccnc1 |  | inconclusive: 2.08 µM [inhibitor, full curve]
26 | COc1cc(O)c(CCC(=O)c2ccc(OC)c(OC)c2)c(OC)c1 |  | inconclusive: 16.5 µM [inhibitor, single point]
27 | Cc1ccc(S(=O)(=O)NCCCN2CCOCC2)c(C)c1 | inactive: 11.8% | 
28 | NS(=O)(=O)OCC(Cc1ccccc1)N1C(=O)c2ccccc2C1=O (stereo not given) | inactive: -16.3% | 
29 | O=C(N/N=C/c1ccc2nccnc2c1)c1ccncc1 |  | inconclusive: 5.22 µM [inhibitor, partial curve, poor fit]
30 | COc1ccc(OC)c(CCNC(=O)c2ccc(CS(=O)(=O)c3ccc(Br)cc3)o2)c1 |  | inconclusive: 7.38 µM [inhibitor, partial curve, poor fit]
31 | CCOC(=O)C1CCN(C(=O)COC(=O)C2CCN(S(=O)(=O)c3ccc(C)c(C)c3)CC2)CC1 | inactive: 42.8% | 
32 | COc1ccccc1NC(=S)NCCSc1ccc(Cl)cc1 |  | inconclusive: 18.5 µM [inhibitor, single point]
33 | Cc1cc(C(=O)NNc2ccc(F)cc2F)no1 | inactive: 18.4% | 
34 | CC(O)Cn1c(=O)c2c(nc(Br)n2Cc2ccccc2)n(C)c1=O (stereo not given) |  | inconclusive: 10.4 µM [inhibitor, single point]
35 | CCCCn1c(N)c(N(CCOC)C(=O)COC(=O)COc2cccc(C(C)=O)c2)c(=O)[nH]c1=O |  | inconclusive: 1.85 µM [inhibitor, partial curve]
36 | Cc1ccc(C)c(C(=O)COC(=O)c2ccccc2N2C(=O)C3C4CCC(C4)C3C2=O)c1 (stereo not given) | inactive: 0.779% | 
37 | O=C(CSc1nnc(-c2ccncc2)o1)Nc1nncs1 |  | inconclusive: 2.94 µM [inhibitor, full curve, poor fit]
38 | COc1cccc(C2C3(C#N)C(N)=NC(OC)(OC)C23C#N)c1 (stereo not given) |  | inconclusive: 4.15 µM [inhibitor, partial curve, poor fit]
39 | N/C(=N/O)c1nc(N2CCCCC2)nc(N2CCCCC2)n1 |  | inconclusive: 2.08 µM [inhibitor, full curve]
40 | NC(=NC1CCCCC1)c1ccc([N+](=O)[O-])cc1 |  | inconclusive: 10.4 µM [inhibitor, single point]
41 | CC(C)c1ccc(-c2c(C#N)c(N)nc(SCC(=O)N3CCCCC3)c2C#N)cc1 |  | inconclusive: 2.33 µM [inhibitor, partial curve, poor fit]
42 | O=c1c2[nH]c3ccc(F)cc3c2ncn1CCN1CCN(Cc2ccccc2)CC1 |  | inconclusive: 1.04 µM [inhibitor, full curve, poor fit]
43 | N#Cc1c2n(c(=S)n(-c3ccccc3)c1=O)CCCCC2 | inactive: 14.6% | 
44 | C/C(=N/NC(=O)C1COc2ccccc2O1)c1ccco1 (stereo not given) |  | inconclusive: 9.28 µM [inhibitor, single point]
45 | CC(=O)N1CCN(c2ccccc2NC(=O)Cc2ccc(Cl)cc2)CC1 |  | inconclusive: 1.17 µM [inhibitor, partial curve, poor fit]
46 | CCN(CC)S(=O)(=O)c1cc(C(=O)NCCN2CCOCC2)ccc1Cl | inactive: -5.4% | 
47 | c1ccc2cc(CNCc3cccc4ccccc34)ccc2c1 |  | inconclusive: 0.0738 µM [inhibitor, full curve, poor fit]
48 | Cc1nn(-c2ccccc2)c(Cl)c1C(=O)NCC(=O)O |  | inconclusive: 18.5 µM [inhibitor, single point]

Row | Compound | activity change, negative = inhibition | Potency
49 | Cc1cccc(C)c1N1CCN(S(=O)(=O)N2CCCCC2)CC1 |  | inconclusive: 0.0026 µM [inhibitor, full curve, poor fit]
50 | COc1ccc(C(=O)NC(C(=O)NCC2(N3CCCCC3)CCCCC2)C(C)C)cc1 (stereo not given) | inactive: -18.8% | 
51 | CCCN(CCC)CCCNC(=O)C1c2cc(OC)c(OC)cc2C(=O)N(C)C1c1cccs1 (stereo not given) | inactive: 28.2% | 
52 | COc1ccc([N+](=O)[O-])cc1NC(=O)Cc1noc2ccc(C)cc12 |  | inconclusive: 4.15 µM [inhibitor, partial curve, poor fit]
53 | CC1CN(c2sc(S(C)(=O)=O)nc2S(=O)(=O)c2ccc(Cl)cc2)CC(C)O1 (stereo not given) |  | inconclusive: 18.5 µM [inhibitor, single point]
54 | CCN(c1cccc(C)c1)C1C(=O)c2ccccc2N1C(C)=O (stereo not given) |  | inconclusive: 14.7 µM [inhibitor, partial curve, poor fit]
55 | Nc1ccc(C(=O)OCc2ccncc2)cc1[N+](=O)[O-] | inactive: 27.1% | 
56 | CCN(CC(=O)NCc1ccc(F)cc1)C(=O)c1cccnc1SC | inactive: 16% | 
57 | Cc1ccc(S(=O)(=O)N(C)C)cc1NC(=O)c1cncc(Br)c1 |  | active: 13.1 µM
58 | CC(Sc1nc2ccccc2c(=O)n1CCc1ccc(S(N)(=O)=O)cc1)C(=O)NC(N)=O (stereo not given) | inactive: -4.17% | 
59 | Cc1c(C(=O)N(C)c2ccc(Cl)cc2)cnn1-c1ccccc1 |  | inconclusive: 2.33 µM [inhibitor, full curve, poor fit]
60 | CCCCn1c(-c2csc3ccccc23)n[nH]c1=S |  | inconclusive: 18.5 µM [inhibitor, single point]
61 | COc1cc(OC)c(NC(=O)Cc2ccc(OC)c(S(=O)(=O)N3CCOCC3)c2)cc1Cl |  | inconclusive: 18.5 µM [inhibitor, single point]
62 | c1ccc(-n2cc(CN3CCC(N4CCOCC4)CC3)c(-c3ccc4c(c3)OCO4)n2)cc1 |  | inconclusive: 18.5 µM [inhibitor, single point]
63 | CC(=O)C1=C(O)C(=O)N(Cc2ccccc2)C1c1ccc(F)cc1 (stereo not given) | inactive: 10.5% | 
64 | CCc1ccc(C(C)NC(=O)/C(C#N)=C\c2cn[nH]c2-c2ccccc2)cc1 (stereo not given) |  | inconclusive: 13.1 µM [inhibitor, single point]
65 | N#C/C(=N\Nc1ccccc1Cl)C(=O)c1ccccc1 |  | inconclusive: 0.0828 µM [inhibitor, full curve, poor fit]
66 | O=C(N/N=C/c1ccc(C(F)(F)F)cc1)c1ccncc1 |  | active: 1.65 µM
67 | COc1ccc(OC)c(C2=C/C(=C/c3ccccn3)C(=O)O2)c1 |  | active: 5.22 µM
68 | CN(CCCC1CCCC1)C(=O)CCc1nnc(-c2ccccc2)o1 | inactive: 17.6% | 
69 | C#Cc1ccc([C@@H]2C=C(C(=O)N3CCOCC3)O[C@H](OCCCCO)C2)cc1 |  | inconclusive: 14.7 µM [inhibitor, single point]
70 | O=C(NCCN1CCCCC1)c1ccc(F)cc1Cl | inactive: -6.13% | 

Individual results from above.
Entry of N#Cc1c2n(c(=S)n(-c3ccccc3)c1=O)CCCCC2 under activity change, negative = inhibition: inactive: 14.6%
Entry of N/C(=N/O)c1nc(N2CCCCC2)nc(N2CCCCC2)n1 under Potency: inconclusive: 2.08 µM [inhibitor, full curve]
Entry of COc1ccccc1CNC(=O)C1CCN(S(=O)(=O)N2CC(C)CC(C)C2)CC1 (stereo not given) under Potency: inconclusive: 4.65 µM [inhibitor, partial curve, poor fit]
Entry of CCc1ccccc1NC(=S)N(CCCN1CCOCC1)Cc1ccccn1 under activity change, negative = inhibition: inactive: -1.28%
